Measured values published in PMC8149633.

By UniProt entry, the sequences of proteins in these tests, tags left out.
UniProt Q12884: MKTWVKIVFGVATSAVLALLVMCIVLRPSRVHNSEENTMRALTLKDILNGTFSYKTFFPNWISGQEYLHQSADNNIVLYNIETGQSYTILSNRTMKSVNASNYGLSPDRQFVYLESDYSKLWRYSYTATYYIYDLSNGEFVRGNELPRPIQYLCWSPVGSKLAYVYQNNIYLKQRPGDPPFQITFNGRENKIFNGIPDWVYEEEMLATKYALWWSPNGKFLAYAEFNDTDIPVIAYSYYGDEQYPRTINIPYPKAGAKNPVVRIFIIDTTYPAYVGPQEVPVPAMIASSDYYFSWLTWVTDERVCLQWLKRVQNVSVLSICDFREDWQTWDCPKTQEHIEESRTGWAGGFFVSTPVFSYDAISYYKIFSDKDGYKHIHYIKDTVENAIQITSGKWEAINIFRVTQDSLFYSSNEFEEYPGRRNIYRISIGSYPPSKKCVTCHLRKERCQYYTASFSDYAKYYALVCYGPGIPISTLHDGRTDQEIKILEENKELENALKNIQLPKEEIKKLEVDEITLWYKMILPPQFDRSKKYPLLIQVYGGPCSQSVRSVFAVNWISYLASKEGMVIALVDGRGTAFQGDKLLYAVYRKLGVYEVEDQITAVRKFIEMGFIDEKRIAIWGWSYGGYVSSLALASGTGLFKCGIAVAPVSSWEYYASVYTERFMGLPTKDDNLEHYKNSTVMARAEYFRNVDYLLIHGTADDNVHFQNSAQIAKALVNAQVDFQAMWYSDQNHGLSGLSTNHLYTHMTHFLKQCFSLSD
UniProt P06733: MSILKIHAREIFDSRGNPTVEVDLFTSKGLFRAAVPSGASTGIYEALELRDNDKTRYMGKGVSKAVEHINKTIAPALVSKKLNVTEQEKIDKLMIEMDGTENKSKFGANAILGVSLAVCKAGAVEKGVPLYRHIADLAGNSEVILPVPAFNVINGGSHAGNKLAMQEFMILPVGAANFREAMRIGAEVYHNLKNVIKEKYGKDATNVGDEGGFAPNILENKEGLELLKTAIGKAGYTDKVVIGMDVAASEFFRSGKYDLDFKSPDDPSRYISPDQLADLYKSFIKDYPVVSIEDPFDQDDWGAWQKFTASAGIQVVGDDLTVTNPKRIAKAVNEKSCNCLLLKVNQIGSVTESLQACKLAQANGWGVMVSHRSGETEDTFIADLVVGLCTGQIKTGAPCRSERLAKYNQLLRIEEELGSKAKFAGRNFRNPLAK

Biological target: Fibroblast activation protein alpha (FAP) in HCT116 cell lysates (human (endogenous in HCT116)) (UniProt Q12884)
Test: affinity purification with mass spectrometry; HCT116 cell lysates immunoprecipitated with anti-FAP antibody (IgG as negative control), protein A agarose, silver staining, LC/MS (Orbitrap Fusion LUMOS)

“Enolase1 (ENO1) (from UniProt P06733 1-434)” was tested, and the binding was “binds”.

No constants are given. Whether binding was seen depends on the method and setting. In cells and extracts the contact can be indirect. A yes stands for co-enrichment or nearness to the bait. Other partners may have been found.
